Data as given in patent publication US5858972A, “Antithrombotic agents and methods of use” (La Jolla Cancer Research Foundation, priority 1996, dated 1999).
At least one peptide structure holds a part that was inferred or is arguable (an end, a ring closure or a residue). Where a SMILES comes first, the peptide text is derived from it. Bridges are numbered along the chain shown (N, C = ends). [ ]: non-standard residue; d: D form. Nle = CCCC[C@H](N)C(=O)O

Sequences of proteins named here, by UniProt entry; tags and fusion partners are left off. Residues count along the entry.
UniProt P05106, 27-788: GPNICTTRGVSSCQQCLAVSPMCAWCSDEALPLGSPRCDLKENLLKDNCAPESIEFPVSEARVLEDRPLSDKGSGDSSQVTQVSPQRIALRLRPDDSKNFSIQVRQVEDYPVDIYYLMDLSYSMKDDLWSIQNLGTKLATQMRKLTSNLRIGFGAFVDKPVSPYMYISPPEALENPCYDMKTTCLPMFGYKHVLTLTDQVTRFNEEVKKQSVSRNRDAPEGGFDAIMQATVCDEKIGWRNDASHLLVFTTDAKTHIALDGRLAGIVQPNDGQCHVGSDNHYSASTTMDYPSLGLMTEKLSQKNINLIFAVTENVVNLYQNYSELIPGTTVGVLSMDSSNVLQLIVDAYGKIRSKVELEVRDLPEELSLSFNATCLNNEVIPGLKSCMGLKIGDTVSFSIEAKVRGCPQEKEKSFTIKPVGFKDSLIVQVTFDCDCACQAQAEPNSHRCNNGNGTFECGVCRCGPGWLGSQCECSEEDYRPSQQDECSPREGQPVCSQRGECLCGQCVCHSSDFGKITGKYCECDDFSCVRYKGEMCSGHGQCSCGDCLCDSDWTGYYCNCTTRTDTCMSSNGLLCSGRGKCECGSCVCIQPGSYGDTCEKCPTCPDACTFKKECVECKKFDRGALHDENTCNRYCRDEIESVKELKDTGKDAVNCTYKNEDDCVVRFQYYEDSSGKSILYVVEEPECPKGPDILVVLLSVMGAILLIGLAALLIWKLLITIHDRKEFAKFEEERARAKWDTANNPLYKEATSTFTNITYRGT
UniProt P08514, 32-887 limits assumed: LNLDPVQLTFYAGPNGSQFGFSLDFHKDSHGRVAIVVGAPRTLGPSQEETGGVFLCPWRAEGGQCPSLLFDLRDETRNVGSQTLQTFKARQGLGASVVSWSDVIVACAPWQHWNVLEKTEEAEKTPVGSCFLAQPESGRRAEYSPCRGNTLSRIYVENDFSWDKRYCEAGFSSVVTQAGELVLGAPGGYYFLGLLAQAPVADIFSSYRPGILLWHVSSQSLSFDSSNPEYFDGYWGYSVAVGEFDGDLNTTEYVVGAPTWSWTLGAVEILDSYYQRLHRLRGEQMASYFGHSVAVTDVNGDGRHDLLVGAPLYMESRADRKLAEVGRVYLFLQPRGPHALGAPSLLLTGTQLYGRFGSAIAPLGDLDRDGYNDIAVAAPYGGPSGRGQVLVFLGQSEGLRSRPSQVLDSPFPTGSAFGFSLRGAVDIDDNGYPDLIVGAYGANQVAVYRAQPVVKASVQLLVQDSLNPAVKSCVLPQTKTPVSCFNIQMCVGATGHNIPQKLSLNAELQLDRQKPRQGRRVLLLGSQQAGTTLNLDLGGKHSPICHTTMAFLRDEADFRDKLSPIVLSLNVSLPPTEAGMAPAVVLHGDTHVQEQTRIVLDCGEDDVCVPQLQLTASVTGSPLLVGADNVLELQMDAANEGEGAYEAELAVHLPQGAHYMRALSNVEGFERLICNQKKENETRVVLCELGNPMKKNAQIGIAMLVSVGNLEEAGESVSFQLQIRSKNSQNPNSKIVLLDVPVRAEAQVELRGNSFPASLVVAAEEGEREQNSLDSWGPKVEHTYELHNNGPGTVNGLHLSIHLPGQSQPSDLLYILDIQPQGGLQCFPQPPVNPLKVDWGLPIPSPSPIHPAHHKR
UniProt P08514, 891-1039 partner limits assumed: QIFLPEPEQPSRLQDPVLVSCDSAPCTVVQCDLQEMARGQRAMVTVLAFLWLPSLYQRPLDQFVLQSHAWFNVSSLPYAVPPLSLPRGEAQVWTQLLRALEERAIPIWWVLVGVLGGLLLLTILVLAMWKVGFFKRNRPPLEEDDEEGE

Biological target: T1, GP-IIb/IIIa (Homo sapiens, UniProt P05106+P08514)
T1 construct: Platelet-rich plasma (PRP) was prepared by centrifuging heparinized; endogenous in cells; host or cells: human platelets in platelet-rich plasma (citrated or heparinized) from normal volunteers
Test: Platelet aggregation in citrated (low Ca2+) versus heparinized (physiological Ca2+) plasma: apparent affinity for GP-IIb/IIIa
Assay type: cell-based
Details: 10 μM ADP
Excerpt: This example provides platelet aggregation studies for various peptides of the present invention. The studies compare the effect of the peptide on aggregation in both citrated and heparinized plasma. Because citrate is a chelating agent for calcium ions, the citrated plasma has a low calcium concentration as is characteristic of a clot site. In contrast, heparinized plasma has a calcium concentration similar to that of physiological conditions elsewhere in the blood stream.
Whole blood was drawn by a licensed phlebotomist from the antecubital vein using a 21 gauge butterfly infusion set and syringe from normal human volunteers. Platelet-rich plasma (PRP) was prepared by centrifuging heparinized (20 Units lithium porcine mucosa heparin/ml whole blood) or citrated (0.38% sodium citrate) whole blood for 12 min. at 200 relative centrifugal force (RCF). […] Platelet aggregation was determined spectrophotometrically utilizing a four channel aggregometer (Chrono-Log 570) by measuring the increase of light transmission through a stirred suspension of PRP maintained at 37° C. […] Values were expressed as percentage of aggregation in the absence of peptides. […]
Peptide anti-aggregation potencies were determined from dose-responsive curves for the inhibition of the maximum aggregation responses stimulated by high doses of ADP (10 μm). […]

Row | Compound | difference in apparent binding affinity for GP-IIb/IIIa at low (citrate) versus higher (heparin) calcium concentration, in words (citrated vs heparinized plasma) | increase (separation) in apparent affinity for GP-IIb/IIIa in low calcium concentration as compared to physiological calcium concentration (citrated plasma (about 0.18 mM Ca2+) vs heparinized plasma (2.3 mM Ca2+))
1 | N=C(N)NCCC[C@H](NC(=O)CN)C(=O)NCC(=O)N[C@@H](CC(=O)O)C(=O)N[C@@H](CO)C(=O)N1CCC[C@H]1C(=O)O [GRGDSP] | essentially the same apparent binding affinities regardless of the calcium concentration | 
2 | CCCC[C@@H]1NC(=O)CC[C@@H](C(N)=O)NC(=O)[C@H](CCCNC(=N)N)NC(=O)[C@H](Cc2ccc(OC)cc2)NC(=O)[C@H](CC(=O)O)NC(=O)CNC1=O [SEQ ID NO. 4, (Nle)GD(Y-OMe)RE-NH2] ([Nle]GDY(Me)RE-NH2; lactam N-6) |  | 21 fold
